From patent US6362166B1, “Antipicornaviral compounds and methods for their use and preparation” (Agouron Pharmaceuticals, Inc., priority 1996, dated 2002) come the findings set out here.

This data set deals with HRV-14. Kind of data set: Antirhinoviral HI-HeLa Cell Culture Assay (Cell Protection Assay, XTT dye reduction). The conditions noted are these: therapeutic index = CC50 divided by EC50; HRV-14, HI-HeLa. In kind it is cell-based, human rhinovirus (HRV) serotype-14. The procedure:
In the Cell Protection Assay, the ability of compounds to protect cells against HRV infection was measured by the XTT dye reduction method. This method is described in Weislow, O. S., R. Kiser, D. L. Fine, J. Bader, R. H. Shoemaker, and M. R. Boyd, J. Natl. Cancer Inst. 1989, 81, 577-586, which is incorporated herein by reference.
HI-HeLa cells were infected with HRV-14 at a multiplicity of infection (m.o.i.) of 0.13 (virus particles/cell) or mock-infected with medium only. Infected or mock-infected cells were resuspended at 8×10^5 cells per mL and incubated with appropriate concentration of compounds of formulas I and II. Two days later, XTT/PMS was added to test plates and the amount of formazan produced was quantified spectrophotometrically at 450/650 nm. […] The therapeutic index (TI) was calculated by dividing the CC50 by the EC50.
All strains of human rhinovirus (HRV) for use in this assay were purchased from American Type Culture Collection (ATCC), except for HRV serotype-14, which was produced from the infectious cDNA clone, constructed and supplied to us by Dr. Roland Rueckert at the Institue for Molecular Virology, University of Wisconsin, Madison, Wisc. HRV stocks were propagated, and antiviral assays were perforemd in HI-HeLa cells (ATCC). Cells were grwon in Minimal Essential Medium, available from Life Technologies, with 10% fetal bovine serum. […]
On the technique in general: Tetrazolium dyes change colour on reduction, which living cells bring about.

Molecules are shown by their SMILES. A value given as a limit tells only on which side of the number the result lay.

`CCOC(=O)c1ccc(OCCC2CCN(c3ccc(C)nn3)CC2)cc1` [Pirodavir, reference compound] gave a TI above 300.
